Some of the results follow.
What was measured:
Assay in all cases: protein microarray (ProtoArray v5.0), streptavidin-Alexa Fluor 647
Conditions in all cases: 3'-biotin; 20 mM Tris (pH 7.5), 5 mM MgCl2, 100 mM KCl, 0.1% Tween-20, A/T-rich and random oligonucleotide blockers; temperature not stated; high values mean tight binding
[1] = test system: Serologically defined colon cancer antigen 3 (human)
Serum albumin (human) = test system: Serum albumin (human)
[2] = test system: Serum amyloid A protein (human)
[3] = test system: Signal recognition particle 9 kDa protein (human)
[4] = test system: Signal recognition particle receptor subunit beta (human)
[5] = test system: Signal transducer and activator of transcription 4 (human)
[6] = test system: Signal transducer and activator of transcription 6 (human)
[7] = test system: Smith-Magenis syndrome chromosome region candidate gene 7 protein (human)
[8] = test system: Sodium channel and clathrin linker 1 (human)
[9] = test system: Sodium channel subunit beta-1 (human)
[10] = test system: Sodium channel subunit beta-4 (human)
[11] = test system: Sodium/glucose cotransporter 2 (human)
[12] = test system: Solute carrier family 22 member 12 (human)
[13] = test system: Solute carrier family 35 member E2 (human)
[14] = test system: Solute carrier family 35 member F2 (human)
[15] = test system: Solute carrier family 41 member 3 (human)
Sorting nexin-33 (human) = test system: Sorting nexin-33 (human)
Sorting nexin-6 (human) = test system: Sorting nexin-6 (human)
[16] = test system: Sperm surface protein Sp17 (human)
[17] = test system: Sperm-associated antigen 11 (human)

Sequence: GGGAGGCTGAGGCAGG [G4-1 biotinylated (PQS2)]
- binding signal [1]: -0.355 z-score
- binding signal (Serum albumin (human)): -0.353 z-score
- binding signal [2]: -0.323 z-score
- binding signal [3]: -0.363 z-score
- binding signal [4]: -0.321 z-score
- binding signal [5]: -0.343 z-score
- binding signal [6]: -0.316 z-score
- binding signal [7]: -0.352 z-score
- binding signal [8]: -0.355 z-score
- binding signal [9]: -0.346 z-score
- binding signal [10]: -0.246 z-score
- binding signal [11]: -0.336 z-score
- binding signal [12]: -0.334 z-score
- binding signal [13]: -0.344 z-score
- binding signal [14]: -0.336 z-score
- binding signal [15]: -0.298 z-score
- binding signal (Sorting nexin-33 (human)): -0.3 z-score
- binding signal (Sorting nexin-6 (human)): -0.279 z-score
- binding signal [16]: -0.353 z-score
- binding signal [17]: -0.343 z-score

Reference: PMC5996148
